Test results: PubChem BioAssay AID1347426 (Functional Genomics Laboratory (NCATS/FGL), 2020)
In all, about 31,000 sequences went through this assay and about 1,400 (4.5%) were called active.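 Rule for the calls: active = median seed-adjusted z-score above 1 or below -1; inactive = the rest.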 Some of the results follow.

Assay: Novel Modifiers of Survival Motor Neuron (SMN) Protein: Gene Identification via Genome-wide siRNA Screen;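 note: luminescence tracks full-length SMN protein made from the SMN2 reporter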
Conditions: HEK293T SMN2-luciferase reporter, siRNA knockdown, 72 h; actives lie on both sides
Procedure, shortened: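 Steps: spot 1 pmol siRNA, add Lipofectamine RNAiMax in serum-free DMEM, seed HEK293T SMN2–luciferase reporter cells; incubate 72 h at 37 °C; add ONE-Glo; normalize luminescence to control siRNA, log10, MAD. Candidates: |MAD| > 1.0.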

| Sequence | median seed-adjusted z-score |
| --- | --- |
| GGAAGUAAAUUUGAUGUAUTT against PON1 | inactive: 0 |
| CAAUUUCCACAGCCUCUAUTT against ADCY4 | inactive: -0.0551 |
| CAGUCUACUCAUUCGCUCATT against MEF2D | inactive: 0.0021 |
| GCGUGUUCAGCGUCACUGATT against NFIC | inactive: 0.72 |
| CGGACCAAGGGAUCACUGATT against ECHDC2 | inactive: -0.0827 |
| CGUUUAGAAGCAACGUGUATT against GPRC5B | inactive: 0 |
| GAGAUCAACGAGUACCUCATT against FOXQ1 | inactive: 0.369 |
| GGAUCACUGUGGAAUCGAATT against CTSB | inactive: -0.31 |
| GAUCAACGGAUGCUAUGAATT against CAPN2 | inactive: -0.0828 |
| CCACGAUCAUGUGAACCCATT against INDO | inactive: 0.0511 |
| GAGUGGACCGUGUUCCAUUTT against TAF7 | inactive: -0.593 |
| CCAGGGAUAUGAUUGACAATT against SERPINE2 | inactive: 0.0144 |
| CAAUGAUAGAUUUCAGAGATT against NANOG | inactive: -0.106 |
| GAAGGAUCCAAAGUGUAUATT against CHUK | inactive: -0.613 |
| GCAUAUUCCCACAAUGACATT against CR2 | inactive: 0.71 |
| AGUCAUUUUGGGAACCGAUTT against ACMSD | inactive: 0 |
| CCUGGAGCAUCGUAACAUUTT against F11 | inactive: -0.0319 |
| GCAACCUGGUGGACUCAUATT against DNM2 | inactive: 0.00254 |
| GCCUUUACUCGUUCCACUATT against ZNF20 | inactive: -0.359 |
| GGAAUAUUCUCAGCGUAAUTT against SLC17A1 | inactive: -0.271 |
| GGACAUCGCUAAACAGUUATT against TBC1D1 | inactive: -0.359 |
| GGCUCUUCGUUGUUUAGAATT against MAP3K1 | inactive: -0.217 |
| GGAUUCCCAUUUCGUCAAATT against OMD | inactive: 0 |

Some of the entries above in another layout.
Sequence,median seed-adjusted z-score
CAGUCUACUCAUUCGCUCATT against MEF2D,inactive: 0.0021
GAUCAACGGAUGCUAUGAATT against CAPN2,inactive: -0.0828
GAGUGGACCGUGUUCCAUUTT against TAF7,inactive: -0.593
AGUCAUUUUGGGAACCGAUTT against ACMSD,inactive: 0

(listing goes on)

| Sequence | median seed-adjusted z-score |
| --- | --- |
| AACUUAUGGAGUUACUAGATT against NAT5 | inactive: -0.0124 |
| UAUUCCACGUGGAGAAAAATT against CD44 | inactive: 0 |
| GGCUGGGCUUGCUAAUAAATT against ZNF628 | inactive: -0.121 |
| CACUCGAUUUGGUUCAGCATT against ITGA2 | inactive: 0.106 |
| CUGCUCACCCUUUACAUCATT against KIF12 | inactive: 0.0971 |
| GCUUCUCUUUGAAUACCCATT against KCNA2 | active: -1.03 |
| AGGCGGACUUGGACCUUCATT against NPM2 | inactive: 0.215 |
| CCAUUCAAGUGUUCGAAGATT against ZNF440 | inactive: 0.208 |
| GGCUUGACUAUUGACCUGATT against NONO | inactive: 0.555 |
| AUACCGUGAUUAACUCAUATT against CLDN23 | inactive: 0.817 |
| GCAUUGCGCUCAAUGACAATT against GAPDHS | inactive: -0.674 |
| GAACUUAACACUAACAGAUTT against HAO2 | inactive: 0.039 |
| CUCUGAGUAUUGACAGAUATT against EDNRB | inactive: 0.119 |
| GCCUCUGUAUGGAGUGAUUTT against FFAR2 | inactive: 0.146 |
| GGACUUCUGUGGACCUUAUTT against SLC2A2 | inactive: -0.498 |
| GACAUUUCCAUUUCGAAUATT against GPR87 | inactive: 0.237 |
| AGUCCUGUCUGAGCCCUGATT against TSC22D3 | inactive: 0.0129 |
| GCCUAUGAAUUUUCGCAAUTT against SERPINA10 | inactive: 0.0233 |
| GGAGUGCUAGAAUCUACUATT against HEPH | inactive: -0.293 |
| ACCAAGCCGUGACCAAGGATT against NOXA1 | inactive: -0.441 |
| GACGGACAGUCAAACCUAATT against KLHL18 | inactive: -0.126 |
| ACGUCGUUCGAGUUCCUAATT against GTF2F1 | inactive: -0.556 |
| GCCUCUAUGCUACAAGAUUTT against TBX22 | inactive: 0.0269 |

| Sequence | median seed-adjusted z-score |
| --- | --- |
| UGGAUAUGUGGGAAAAUAATT against GEM | inactive: 0.018 |
| AACUUGUAUUCUUAGGUUUTT against SAR1A | inactive: 0.0213 |
| GAAACGAACUGGGCAGUAUTT against FGF2 | inactive: 0.0208 |
| GGAUCCAGUUGCAAUGAUATT against ATG16L1 | inactive: -0.187 |
| CAACAAUUGUGCGAAGAUUTT against TRAF5 | inactive: 0.598 |
| AGAGGAACUUUAUUCUUGATT against HNRNPUL2 | inactive: -0.0273 |
| GCUUUGAACCCGGUGCAGATT against WNT5B | inactive: 0.72 |
| AGAAUAAAUUAUUAGCUGATT against BET1 | inactive: 0.394 |
| CCCUGUUCGUGUGACACUATT against SPRED1 | inactive: 0.387 |
| CAGCUGCUAUCAGAACGGATT against APBA2 | active: 1.66 |
| GCUAUAAUGCUACAACAAATT against KLHL2 | inactive: 0 |
| CUGUUGUCCUCUAUCCUUATT against TM7SF4 | inactive: 0.0246 |
| GAGAAGAUGUUGACGCGAATT against TRPM4 | inactive: 0.0519 |
| GAACUGGUCUUUAAGGACATT against SRL | inactive: 0.148 |
| GCCUGGAACUCGUUAGCAATT against TRMT11 | inactive: -0.707 |
| GCUCAGCUCUGGUACUUUATT against GTF2H4 | inactive: -0.261 |
| AAACAACCAUGAGAUCAGATT against STOML2 | inactive: -0.264 |
| AGAUGUUUCUAAGCAGUGUTT against TFAP2E | inactive: 0.243 |
| CAAGAAGGCUGGAACGGAATT against APOA2 | inactive: -0.297 |
| GGAACAUCAGGGACAACGATT against TNPO2 | inactive: 0.0785 |
| CCUUAUAAAUGCGAUUUAUTT against ZNF445 | inactive: -0.0752 |
| CAAAGUGAAUGCUGACAUATT against NSDHL | inactive: 0.716 |
| GACCUAACCAAGCACCAGATT against RAB25 | inactive: -0.04 |
